This is an account of results in article PMC6464043.

Protein sequences, listed by entry. Tags and fused reporters are not part of them.
UniProt P49739: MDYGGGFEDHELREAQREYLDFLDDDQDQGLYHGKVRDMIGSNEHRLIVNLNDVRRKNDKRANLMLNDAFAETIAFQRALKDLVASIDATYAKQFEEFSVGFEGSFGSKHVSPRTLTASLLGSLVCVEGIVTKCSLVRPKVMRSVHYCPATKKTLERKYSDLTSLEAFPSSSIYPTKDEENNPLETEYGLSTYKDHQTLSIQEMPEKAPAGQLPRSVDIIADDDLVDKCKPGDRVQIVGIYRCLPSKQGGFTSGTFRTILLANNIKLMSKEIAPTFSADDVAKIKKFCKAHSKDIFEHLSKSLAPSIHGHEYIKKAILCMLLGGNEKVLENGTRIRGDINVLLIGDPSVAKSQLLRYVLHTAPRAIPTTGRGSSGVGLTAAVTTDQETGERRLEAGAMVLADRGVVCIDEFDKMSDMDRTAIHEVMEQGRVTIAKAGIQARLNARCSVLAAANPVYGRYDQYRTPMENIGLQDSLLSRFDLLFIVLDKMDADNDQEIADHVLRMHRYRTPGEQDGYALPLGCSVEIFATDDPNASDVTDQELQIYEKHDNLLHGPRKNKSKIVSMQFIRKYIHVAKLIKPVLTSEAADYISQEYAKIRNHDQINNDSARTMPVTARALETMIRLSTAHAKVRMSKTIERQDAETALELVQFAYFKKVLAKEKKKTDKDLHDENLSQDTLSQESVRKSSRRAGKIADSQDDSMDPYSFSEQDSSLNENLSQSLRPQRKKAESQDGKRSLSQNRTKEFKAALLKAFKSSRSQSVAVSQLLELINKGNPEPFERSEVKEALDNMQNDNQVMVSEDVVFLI

For this assay, the target named is Mcm3 (X. laevis (endogenous in egg extract)) (UniProt P49739). The experiment in a line: affinity purification with mass spectrometry; Mcm3 (or control sheep IgG) immunoprecipitation from chromatin isolated 60 min after cyclin A1Δ addition (mitosis) from X. laevis egg extract with caffeine and p97 inhibitor NMS873; chromatin proteins released with benzonase, sonication, 150 mM potassium acetate.

No constants are given. Whether binding was seen depends on the method and setting. In cells and extracts the contact can be indirect. A yes stands for co-enrichment or nearness to the bait. Other partners may have been found.

B1: TRAIP ubiquitin ligase (protein, UniProt Q6NRV0 1-464)
chain: MPIRAYCTICSDFFDNARDVAAITCGHTFHQECLLQWFHSAPHRTCPQCRIQVSSRQIINKLFFDIGGEEETVLDAESLKNEVDRIKASLLVKEKEKRECQGLVDSLREMLDVRNVTIQSQQKELGDMEMLCSTLKKQIKFLDKQQSETKAAKDEARKLRNKLKTMESIEVLLQSQRSEVEEMIRDMGSGQAAVEQLAIYCVSLKKEYENLKEVRKSSAEMTEKLRKELFSSNHKAQKAELELTKVREELSASQKELHSADKEIMSLKKKVEFLQKTLTTPTASNEAISRLIFESPAPIGLERPKLRPPMMGNDINLDVTFDIDTPEHNTQKSVVAPFKKMKFDNKEHPLSSPTKNPLQESKGLMSWAGGRTGADEDDDLTLPSFIKNSLLHKKPVGSLLGLRQNTGAVRTGFDGLGGRTKFIQPSNLTEIRPLHQKMKRKKVSRPTACTSSLANQPRLEDFLK
Turning to B1, the binding result is listed as “binds”.

B2: Ctf4/And-1 (protein, UniProt O13046 1-1127)
chain: MPAIKKNMRYGHPEGHTDVCFDDSGNFLVTCGSDGDIRIWESLDDDDPKSISIGEKAYSFALKNGKVVTAASNNAIQLHTFPDGEPDGILTRFTTNANHVVFNTDGTRIAAGSGDFLVKVLQVEDSTQQKTLRGHSAPVLSVSFDPKDIYLASASCDGSVRIWKISDQTCEAVLPLLEKCNDVFNAKSICRLAWQPKSGKFVAIPVGKAVHLYDRDSLKNICTLSDDFITQPVNIVAWSPCGQYLVAGSVDGCIVAWNIATKACLERIKHEKGYTICALAWHPHLPQIAYTDNEGNLGLLEDVCQGDVKQPSAKVSSAETKDYDELFDGDDDEDFLNGDMIGHEGAVNDEDDDDNFTALTGRPRNRGAIFDDDISSDVPSLKLVGNENPVVEDDQASSVQNFTSVASVKLSYNGPMPTPQQKPFQSGSTPVHLMHRFMVWNSVGVIRCYNDEQDNAIDVEFHDTSIHHAIHLTNSLNHTLADVSQEAVLLACETTEELASKLQCLHFSSWDTSKEWMVDMPKGENIQAICLGQGWVACATSALLIRIFSVGGVQKELISLFGPVVCMASHGEQLIVVYHRGMGFDGDQCLGVQLLELGKKKKQVLHGDPLPLSRKSYLSWLGFTAEGSPCYVDSEGIVRLLNRSLGDTWVPICNTREHCKGKSDHYWVVGIHENPQQVRCIPCKGSRFPPTLPRPAVAVLPFNLPYCQITTEKGQMEEQYWRSQIFSNHSDYLSKHGYECDENFKAEAQKMQQELLMKMFALSCKLEREFRCMELAEFMTQNVMNLAIKYASRSKRLILAQRLSEMALEKAAEQASAEQNEEEDEEEEDFRSRLTAGYSRTATEWGDSRAKPVKQDQYEENNEEEMEEEEKEQEEALESNTPTANPFNKSVKTPDVSESKLGAILSSNQGRVNPFKVSASQKSPAFASNSSRSTSILDNMGKFPRKPSASGSPSTSKSDSVIIKPLAPKAKSKQGQATLFHSVQAKPIAKKTTEEKKAVPTPPKAAADIAENKKPKTGFQLWLDENRPSILSENAGLDESEIIKEGMSRFRMLTSEERMLWTEKAKGDYPGEDGADAKKRKRPEQENMASNGCPQENTDSGIAAAKKHKPLGQSANNKLSAFAFKKE
Regarding B2, the binding entry is reported as “binds”.
